These are yes or no findings as the source states them, for the method shown. In cells and extracts the contact can be indirect. Some binding calls cover weakened binding; strength is not graded here.
Target: Myc-HDAC1 (UniProt Q13547)
Assay: co-IP; HEK293T cells co-transfected with Ty1-Tet1 WT or Ty1-Tet1deltaCD and Myc-HDAC1; lysed in RIPA buffer with protease inhibitors; antibody overnight, protein A/G PLUS-Agarose 2 h, washed five times with lysis buffer and once with PBS; western blot; which protein was precipitated not given

Sequences of proteins named here, by UniProt entry; tags and fusion partners are left off.
UniProt Q13547: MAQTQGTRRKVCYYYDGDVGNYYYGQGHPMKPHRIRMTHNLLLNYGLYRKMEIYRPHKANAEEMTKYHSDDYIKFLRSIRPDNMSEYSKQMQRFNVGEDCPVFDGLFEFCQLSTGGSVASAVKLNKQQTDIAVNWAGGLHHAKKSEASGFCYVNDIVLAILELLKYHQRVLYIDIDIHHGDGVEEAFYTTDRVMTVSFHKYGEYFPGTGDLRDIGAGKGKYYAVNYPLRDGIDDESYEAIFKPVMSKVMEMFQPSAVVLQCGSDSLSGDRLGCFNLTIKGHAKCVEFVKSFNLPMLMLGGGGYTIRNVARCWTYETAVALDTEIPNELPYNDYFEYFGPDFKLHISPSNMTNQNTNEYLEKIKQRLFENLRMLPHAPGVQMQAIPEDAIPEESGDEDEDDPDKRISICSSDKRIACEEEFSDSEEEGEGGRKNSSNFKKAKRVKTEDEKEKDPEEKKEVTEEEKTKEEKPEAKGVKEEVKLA
UniProt Q3URK3: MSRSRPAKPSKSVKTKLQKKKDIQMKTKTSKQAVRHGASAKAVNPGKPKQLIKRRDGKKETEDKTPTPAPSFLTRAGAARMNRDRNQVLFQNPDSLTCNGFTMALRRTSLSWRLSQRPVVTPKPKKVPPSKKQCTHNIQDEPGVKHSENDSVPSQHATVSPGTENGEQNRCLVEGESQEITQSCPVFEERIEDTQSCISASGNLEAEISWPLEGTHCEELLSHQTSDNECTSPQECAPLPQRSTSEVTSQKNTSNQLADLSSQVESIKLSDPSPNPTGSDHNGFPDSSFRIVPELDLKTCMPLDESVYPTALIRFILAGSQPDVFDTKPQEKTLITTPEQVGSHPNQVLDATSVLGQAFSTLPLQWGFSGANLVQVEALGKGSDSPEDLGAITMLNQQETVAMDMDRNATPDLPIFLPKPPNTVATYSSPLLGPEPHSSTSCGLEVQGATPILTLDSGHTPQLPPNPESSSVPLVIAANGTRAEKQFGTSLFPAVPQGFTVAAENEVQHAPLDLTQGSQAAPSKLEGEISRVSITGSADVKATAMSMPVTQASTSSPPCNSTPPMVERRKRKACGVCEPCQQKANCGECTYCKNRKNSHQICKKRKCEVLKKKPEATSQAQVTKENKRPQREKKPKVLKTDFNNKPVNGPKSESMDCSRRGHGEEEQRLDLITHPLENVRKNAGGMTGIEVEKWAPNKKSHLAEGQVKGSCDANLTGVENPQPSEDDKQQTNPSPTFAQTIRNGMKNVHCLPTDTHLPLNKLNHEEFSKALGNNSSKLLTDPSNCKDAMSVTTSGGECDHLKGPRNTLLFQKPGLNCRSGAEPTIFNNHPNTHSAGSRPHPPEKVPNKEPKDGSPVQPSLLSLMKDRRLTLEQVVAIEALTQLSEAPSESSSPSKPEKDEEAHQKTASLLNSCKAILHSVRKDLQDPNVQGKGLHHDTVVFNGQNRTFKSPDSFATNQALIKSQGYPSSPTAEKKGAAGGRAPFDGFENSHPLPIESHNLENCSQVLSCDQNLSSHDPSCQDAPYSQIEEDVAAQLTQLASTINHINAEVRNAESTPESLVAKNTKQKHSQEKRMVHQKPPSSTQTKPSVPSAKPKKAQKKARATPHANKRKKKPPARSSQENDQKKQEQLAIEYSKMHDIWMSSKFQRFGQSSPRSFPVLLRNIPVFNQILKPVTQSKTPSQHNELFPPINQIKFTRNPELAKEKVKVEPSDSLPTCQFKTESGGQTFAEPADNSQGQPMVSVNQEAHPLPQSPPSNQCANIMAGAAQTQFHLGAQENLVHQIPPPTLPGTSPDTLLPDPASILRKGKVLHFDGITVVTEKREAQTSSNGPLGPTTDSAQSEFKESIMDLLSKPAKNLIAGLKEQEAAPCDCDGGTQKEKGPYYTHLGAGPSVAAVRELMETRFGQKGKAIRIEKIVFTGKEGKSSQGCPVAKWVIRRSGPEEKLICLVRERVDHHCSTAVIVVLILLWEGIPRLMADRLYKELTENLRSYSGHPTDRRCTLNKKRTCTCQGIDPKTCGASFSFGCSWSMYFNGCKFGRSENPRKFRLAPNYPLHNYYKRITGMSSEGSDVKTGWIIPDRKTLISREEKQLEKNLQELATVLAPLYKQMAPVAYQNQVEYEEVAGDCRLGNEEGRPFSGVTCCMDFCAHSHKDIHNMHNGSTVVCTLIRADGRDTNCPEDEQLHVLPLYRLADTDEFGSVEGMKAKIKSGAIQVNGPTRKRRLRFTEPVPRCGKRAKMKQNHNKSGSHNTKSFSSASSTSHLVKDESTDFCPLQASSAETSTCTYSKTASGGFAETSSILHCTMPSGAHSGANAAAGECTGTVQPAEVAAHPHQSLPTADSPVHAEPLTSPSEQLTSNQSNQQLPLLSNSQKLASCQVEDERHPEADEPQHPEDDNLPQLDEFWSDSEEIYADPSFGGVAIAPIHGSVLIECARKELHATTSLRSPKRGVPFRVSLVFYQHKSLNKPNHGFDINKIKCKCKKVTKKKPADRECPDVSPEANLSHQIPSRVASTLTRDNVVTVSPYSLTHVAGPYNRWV

Ty1-Tet1 WT (from UniProt Q3URK3 1-2039) (enzyme)
binding: binds

From publication PMC7453011
